This passage reports T/C and survivor count results from PubChem BioAssay AID248 (DTP/NCI, 2004).

The list shows only some results of the screen, not a fair sample: it gathers tests that were run many times, whatever their T/C, doses with no T/C, and many T/C values between a quarter and a half above the control. Further doses and runs are listed elsewhere. T/C: endpoint of the treated group in % of that of the vehicle group. Some doses have a count of surviving animals in place of a T/C: the source holds a T/C of zero for them, seemingly a mark for toxic or unscored doses. Some survivor counts are full or nearly so, which does not show that the dose was tolerated: the source hardly ever lists a survival T/C far under the control, and the zero likely stands for such cases as well. Survivors were counted at the toxicity check, usually on the fifth day, unless a day is given; later deaths do not show. Schedule codes are those of the source, read here as Q, the interval in days (D) or hours (H), X, the number of doses. Some schedule codes hold Z or #, which are not explained here. For survival time, the PubChem record calls one and a half times the control and up active, and a quarter to a half above the control has no call in these data; cut-offs in other NCI protocols can differ. Some T/C values are followed by the survivors on the day toxicity was checked, most often the fifth; without a count, all were alive then. Some doses were run more than once; their values stand side by side, smallest first. Additions like (4×) give the number of equal values in this list.

This assay deals with L1210 leukemia ip in BDF1 mice, survival T/C. Briefly: NCI In Vivo Anticancer Drug Screen. Data for tumor model L1210 Leukemia (intraperitoneal) in B6D2F1 (BDF1) mice. The note with it: higher T/C = longer survival.
Where [1] appears, read: T/C endpoint: mean survival time, dose: 400.0 mg/kg/injection, schedule: Q01DX001 (ip), vehicle: saline.
Setting [2] is: T/C endpoint: median survival time, dose: 20.0 mg/kg/injection, schedule: Q01DX009 (ip), vehicle: saline.
Setting [3] is: T/C endpoint: mean survival time, dose: 75.0 mg/kg/injection, schedule: Q01DX001 (ip), vehicle: saline.
Where [4] appears, read: T/C endpoint: mean survival time, dose: 150.0 mg/kg/injection, schedule: Q01DX001 (ip), vehicle: saline.
Setting [5] is: T/C endpoint: mean survival time, dose: 300.0 mg/kg/injection, schedule: Q01DX001 (ip), vehicle: saline.
Setting [6] is: T/C endpoint: mean survival time, dose: 200.0 mg/kg/injection, schedule: Q01DX009 (ip), vehicle: saline with Tween-80.
[7] abbreviates: T/C endpoint: mean survival time, dose: 400.0 mg/kg/injection, schedule: Q01DX009 (ip), vehicle: saline with Tween-80.
Setting [8] is: T/C endpoint: mean survival time, dose: 400.0 mg/kg/injection, schedule: Q04DX002 (ip), vehicle: saline with Tween-80.
Setting [9] is: T/C endpoint: mean survival time, dose: 400.0 mg/kg/injection, schedule: Q04DX003 (ip), vehicle: Klucel (hydroxypropylcellulose) (HPC).
[10] abbreviates: T/C endpoint: mean survival time, dose: 200.0 mg/kg/injection, schedule: Q01DX001 (ip), vehicle: saline.
Where [11] appears, read: T/C endpoint: mean survival time, dose: 200.0 mg/kg/injection, schedule: Q01DX009 (ip), vehicle: Klucel (hydroxypropylcellulose) (HPC).

As for `O=C(CCBr)N1CCN(C(=O)CCBr)CC1`, the T/C by setting is: (T/C endpoint: mean survival time, dose: 6.25 mg/kg/injection, schedule: Q01DX Z (oral), vehicle: carboxymethylcellulose (CMC)) 126 % of control; (T/C endpoint: mean survival time, dose: 22.5 mg/kg/injection, schedule: Q01DX Z (ip), vehicle: methylcellulose (MC)) 132 % of control; (T/C endpoint: mean survival time, dose: 24.0 mg/kg/injection, schedule: Q01DX Z (ip), vehicle: carboxymethylcellulose (CMC)) 134 % of control [5 of 6 alive]; (T/C endpoint: mean survival time, dose: 36.0 mg/kg/injection, schedule: Q01DX Z (ip), vehicle: carboxymethylcellulose (CMC)) 129 % of control; (T/C endpoint: mean survival time, dose: 40.0 mg/kg/injection, schedule: Q01DX009 (ip), vehicle: saline) 125 and 138 % of control; (T/C endpoint: mean survival time, dose: 43.5 mg/kg/injection, schedule: Q07DX006 (ip), vehicle: carboxymethylcellulose (CMC)) 128 % of control. The T/C reads like this: (T/C endpoint: mean survival time, dose: 50.0 mg/kg/injection, schedule: Q01DX Z (oral), vehicle: carboxymethylcellulose (CMC)) 147 % of control; (T/C endpoint: mean survival time, dose: 54.0 mg/kg/injection, schedule: Q01DX Z (ip), vehicle: carboxymethylcellulose (CMC)) 141 and 144 % of control; (T/C endpoint: mean survival time, dose: 75.0 mg/kg/injection, schedule: Q03DX008 (ip), vehicle: carboxymethylcellulose (CMC)) 140 % of control; (T/C endpoint: mean survival time, dose: 80.0 mg/kg/injection, schedule: Q01DX009 (ip), vehicle: saline) 124, 164, 173, 189 % of control [5 of 6 alive]; (T/C endpoint: mean survival time, dose: 81.0 mg/kg/injection, schedule: Q01DX Z (ip), vehicle: carboxymethylcellulose (CMC)) 143 % of control; (T/C endpoint: mean survival time, dose: 87.0 mg/kg/injection, schedule: Q07DX004 (ip), vehicle: carboxymethylcellulose (CMC)) 125 % of control. The T/C (T/C endpoint: mean survival time, dose: 100.0 mg/kg/injection, schedule: Q01DX001 (ip), vehicle: saline, evaluated on day 30) was 128 % of control [5 of 6 alive]; the T/C (T/C endpoint: mean survival time, dose: 100.0 mg/kg/injection, schedule: Q01DX001 (ip), vehicle: saline, run until all animals had died) was 145 % of control; the T/C (T/C endpoint: mean survival time, dose: 100.0 mg/kg/injection, schedule: Q01DX Z (im), vehicle: carboxymethylcellulose (CMC)) was 135 % of control; the T/C (T/C endpoint: mean survival time, dose: 100.0 mg/kg/injection, schedule: Q01DX Z (sc), vehicle: carboxymethylcellulose (CMC)) was 148 % of control; the T/C (T/C endpoint: mean survival time, dose: 100.0 mg/kg/injection, schedule: Q04DX003 (ip), vehicle: saline) is 147 % of control; the T/C (T/C endpoint: mean survival time, dose: 175.0 mg/kg/injection, schedule: Q07DX004 (ip), vehicle: carboxymethylcellulose (CMC)) was 146 % of control. For the same molecule, the T/C reads like this: (T/C endpoint: mean survival time, dose: 200.0 mg/kg/injection, schedule: Q01DX006 (iv), vehicle: saline) 128 % of control; (T/C endpoint: mean survival time, dose: 400.0 mg/kg/injection, schedule: Q01DX001 (ip), vehicle: carboxymethylcellulose (CMC)) 131 % of control; under setting [1], 145 % of control [5 of 6 alive]; (T/C endpoint: mean survival time, dose: 400.0 mg/kg/injection, schedule: Q01DX006 (iv), vehicle: saline) 143 % of control; under setting [2], 127 % of control; (T/C endpoint: median survival time, dose: 40.0 mg/kg/injection, schedule: Q01DX009 (ip), vehicle: saline) 144 % of control. Besides, the survivor count reads like this: (T/C endpoint: mean survival time, dose: 400.0 mg/kg/injection, schedule: Q01DX Z (oral), vehicle: carboxymethylcellulose (CMC)) 5 of 6; (T/C endpoint: mean survival time, dose: 800.0 mg/kg/injection, schedule: Q01DX Z (im), vehicle: carboxymethylcellulose (CMC)) 1 of 6; (T/C endpoint: mean survival time, dose: 800.0 mg/kg/injection, schedule: Q01DX Z (ip), vehicle: carboxymethylcellulose (CMC)) 2 of 6; (T/C endpoint: mean survival time, dose: 800.0 mg/kg/injection, schedule: Q01DX Z (sc), vehicle: carboxymethylcellulose (CMC)) 2 of 6; (T/C endpoint: mean survival time, dose: 1200.0 mg/kg/injection, schedule: Q03DX003 (ip), vehicle: carboxymethylcellulose (CMC)) 0 of 6; under setting [2], 6 of 6.

As for `CC[P+](C)(CC)c1ccccc1`, the survivor count reads like this: (T/C endpoint: mean survival time, dose: 60.0 mg/kg/injection, schedule: Q01DX001 (ip), vehicle: saline) 1 of 6; under setting [3], 0 of 6; under setting [4], 0 of 6; under setting [5], 0 of 6.

On to `Cc1ccc(NC(=S)NC(=O)/C=C/c2ccccc2)cc1Cl`, for which the survivor count was 6 of 6 (T/C endpoint: mean survival time, dose: 50.0 mg/kg/injection, schedule: Q01DX009 (ip), vehicle: saline with Tween-80); 6 of 6 (T/C endpoint: mean survival time, dose: 100.0 mg/kg/injection, schedule: Q04DX002 (ip), vehicle: saline with Tween-80); 4 of 6 under setting [6]; 6 of 6 (T/C endpoint: mean survival time, dose: 400.0 mg/kg/injection, schedule: Q01DX001 (ip), vehicle: saline with Tween-80). The T/C runs as follows: (T/C endpoint: mean survival time, dose: 100.0 mg/kg/injection, schedule: Q01DX009 (ip), vehicle: saline with Tween-80) 91, 92, 93, 97 % of control (2×); under setting [6], 90, 95, 103 % of control; under setting [7], 90, 92 (2×), 98 % of control.

For `COC1OC2COC(c3ccccc3)OC2C(O)C1N` (stereo not given), for the setting “T/C endpoint: mean survival time, dose: 200.0 mg/kg/injection, schedule: Q04DX003 (ip), vehicle: saline with Tween-80”, the survivor count was 0 of 6.

As for `O=C(/C=C/c1ccccc1)NC(=S)Nc1ccc(O)cc1`, the survivor count by setting is: under setting [7], 1 of 3; under setting [8], 1 of 3.

Take `Cc1ccc(Nc2nc(N)nc(N)c2Cl)cc1`: the survivor count under setting [6] is 3 of 3.

Take `CCCCCC[Si](Cl)(CCCCCC)CCCCCC`: the survivor count under setting [1] is on record as 1 of 6.

For the molecule `CCCCSP(=O)(Cc1ccccc1)SCCCC`, the survivor count by setting is: (T/C endpoint: mean survival time, dose: 100.0 mg/kg/injection, schedule: Q04DX003 (ip), vehicle: Klucel (hydroxypropylcellulose) (HPC)) 0 of 6; (T/C endpoint: mean survival time, dose: 200.0 mg/kg/injection, schedule: Q04DX003 (ip), vehicle: Klucel (hydroxypropylcellulose) (HPC)) 0 of 6; under setting [9], 0 of 6.

Take `NP(O)(O)=S`: the survivor count is recorded as 2 of 6 (T/C endpoint: mean survival time, dose: 37.5 mg/kg/injection, schedule: Q01DX001 (ip), vehicle: saline); 1 of 6 under setting [3]; 0 of 6 under setting [4]; 0 of 6 under setting [5].

With `C[N+](C)(C)Cc1ccc2ccccc2c1Br`, the survivor count is 3 of 6 (T/C endpoint: mean survival time, dose: 100.0 mg/kg/injection, schedule: Q01DX001 (ip), vehicle: saline); 0 of 6 under setting [10]; 0 of 6 under setting [1].

Take `CCCCS(=O)(=O)N(CC)CC`: the survivor count (T/C endpoint: mean survival time, dose: 400.0 mg/kg/injection, schedule: Q01DX009 (ip), vehicle: carboxymethylcellulose (CMC)) is recorded as 5 of 6.

Regarding `CC(C)(C)C1CCC2(CC1)CCN(CCCN1CCCCCC1)CC2`, the survivor count by setting is: under setting [10], 0 of 4; under setting [1], 0 of 4.

For `O=C(O)c1ccc(C(=O)c2ccc([N+](=O)[O-])cc2)cc1`, the survivor count reads like this: (T/C endpoint: mean survival time, dose: 100.0 mg/kg/injection, schedule: Q01DX009 (ip), vehicle: carboxymethylcellulose (CMC)) 3 of 3; (T/C endpoint: mean survival time, dose: 200.0 mg/kg/injection, schedule: Q01DX009 (ip), vehicle: carboxymethylcellulose (CMC)) 3 of 3.

As for `CSc1nccc(=O)[nH]1`, the survivor count was 2 of 6 under setting [11] and 0 of 6 under setting [9].

With `CCOC(=O)C(C)CC(=O)c1ccccc1` (stereo not given), the survivor count is, setting by setting: under setting [6], 0 of 6; under setting [8], 2 of 3.

Turning to `Nc1ccc(-c2ccc3ccccc3n2)cc1`, the survivor count reads like this: (T/C endpoint: mean survival time, dose: 50.0 mg/kg/injection, schedule: Q01DX009 (ip), vehicle: Klucel (hydroxypropylcellulose) (HPC)) 6 of 6; (T/C endpoint: mean survival time, dose: 100.0 mg/kg/injection, schedule: Q01DX009 (ip), vehicle: Klucel (hydroxypropylcellulose) (HPC)) 1 of 6; under setting [11], 0 of 6; (T/C endpoint: mean survival time, dose: 400.0 mg/kg/injection, schedule: Q01DX009 (ip), vehicle: Klucel (hydroxypropylcellulose) (HPC)) 0 of 6; under setting [9], 0 of 6.
